# Test results taken from PubChem BioAssay AID493014 (National Center for Advancing Translational Sciences (NCATS), 2011).
# “And” between values parts separate entries of the source, which are not always exact repeats. Equal values may be shown once. About 170 (0.05%) of roughly 340,000 compounds were called active. The shares of active, inactive and inconclusive entries below differ from those in the screen. Calls come from the whole dose curve; as a rule, active = well fitted inhibition curve with a large enough effect in the signal ratio, with a control signal flat (not every such curve was filed as active); inconclusive = small, poorly fitted or top-dose-only effect, or effect the other way, or a change in a side signal; inactive = flat fitted curve, though single readings scatter; the % refers to the signal ratio. A potency beside an inconclusive call is a rough fit, not a confirmed value.
# Test: qHTS Assay to Find Inhibitors of Chronic Active B-Cell Receptor Signaling;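 for activity change, negative = inhibition: plate controls were basal doxycycline-induced cells for no effect and cells given 10 µM MG132 for full effect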
# Settings: ABC-DLBCL IkBa-CBG/CBR reporter, luminescence ratio (green luciferase fused to IkBa over red control in TMD8 lymphoma cells), 4 h; activity change, negative = inhibition: at 46.1 µM (top of the series)
# Summary of the method: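 Doxycycline induced both beetle luciferases in TMD8 lymphoma cells; IKK-driven degradation limits the IkappaBalpha-fused green signal, while red luminescence normalises for cell number and nonspecific effects. Compounds tested up to 46 uM, 4 hrs.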
# Potency is the fitted concentration of half-maximal effect.
Compound,"activity change, negative = inhibition",Potency
COc1ccccc1C(O)(c1ccccc1)C(CN1CCOCC1)c1ccccc1 (centres undefined),inconclusive: -0.67%,
CCn1c(=O)c(C(=O)CN(C)Cc2ccc(F)cc2)c(N)n(Cc2ccccc2)c1=O,inconclusive: -3.77%,
Cc1cccc(NC(=O)c2ccc([N+](=O)[O-])o2)n1,,"inconclusive: 28.2 µM [falling, partial curve]"
CCOc1ccccc1C(=O)NC(C)c1ccc(-n2ccnc2)cc1 (centres undefined),inconclusive: -9%,
Nc1ccc(N)c(C(=O)O)c1,inactive: 14.5%,
Cc1ccc(C(=O)c2cc([N+](=O)[O-])ccc2N2CCCCC2)cc1C,,"inconclusive: 20.6 µM [falling, single point]"
O=c1[nH]c2cc3c(cc2cc1C(c1nnnn1Cc1ccccc1)N1CCN2CCCC2C1)OCCO3 (centres undefined),inactive: 0.431%,
Cc1onc(-c2ccccc2)c1C(=O)n1cccn1,inconclusive: 2.44%,
Cn1c(=O)c2c(nc(Sc3ncnn3CC(=O)NC3CCCCC3)n2C)n(C)c1=O,inactive: 8.56%,
O=C(CSc1nnc(-c2ccccn2)o1)Nc1ccccc1,,"inconclusive: 12.6 µM [falling, partial curve]"
CCOC(=O)c1sc2nc(CC(=O)OC)nc(NCc3ccco3)c2c1C,inactive: 16%,
CCSc1nsc(NC(=O)Nc2cccc(C(C)=O)c2)n1,,"inconclusive: 31.6 µM [rising, single point]"
CC1(c2ccccc2)NC(=O)N(CC(=O)NC(=O)NC2CCCC2)C1=O (centres undefined),,"inconclusive: 15.8 µM [falling, partial curve, poor fit]"
Cc1ccc(-n2c(SCC(=O)Nc3ccc4c(c3)OCO4)nnc2-c2cccs2)cc1,inconclusive: -1.18%,
O=C1CN(C(=O)CSc2nnc(Nc3ccccc3)s2)c2ccccc2N1,inconclusive: 0.991%,
CCc1ccc(C(=O)COC(=O)CNC(=O)c2cccs2)cc1,inconclusive: 18.9%,
CCOc1ccccc1N1CCN(C(=O)c2ccc(S(=O)(=O)Nc3ccccc3)cc2)CC1,inconclusive: -9.93%,
COc1cccc(NC(=O)C2CCC(CNC(=O)[C@@H]3Cc4ccccc4CN3)CC2)c1 (some centres undefined),,"inconclusive: 20 µM [falling, partial curve]"
CCSc1nnc(N2C(=O)c3ccc(C(=O)c4ccc(C(=O)O)cc4)cc3C2=O)s1,inactive: -1.82%,
COc1ccc(C2=NN(C(=O)CSc3cn(C)c4ccccc34)C(c3ccc(OC)cc3)C2)cc1 (centres undefined),inconclusive: 1.19%,
NS(=O)(=O)c1ccc(N/C=C\C(=O)c2cccc3ccccc23)cc1,inconclusive: -1.66%,
CC(=O)c1c(C(C)=O)c(C)n(-c2nc(-c3cccs3)c(C)s2)c1C,inconclusive: 1.77%,
COc1ccc(CC2(CO)CCN(S(=O)(=O)c3sccc3C)CC2)cc1,inactive: -1.59%,
COc1ccc(C(=O)Nc2cnc3ccccn3c2=O)cc1,,"inconclusive: 15.8 µM [falling, partial curve] and inconclusive: 11.2 µM [falling, partial curve]"
CCCOc1ccc(C(=O)Nc2ccc(S(=O)(=O)NC3=NCCCCC3)cc2)cc1,,"inconclusive: 16.4 µM [falling, single point]"
Brc1ccc(C2=Nn3c(nnc3-c3cccnc3)SC2)s1,,"inconclusive: 12.6 µM [falling, partial curve, poor fit]"

# In another format: four of the compounds above
Compound | activity change, negative = inhibition | Potency
CC1(c2ccccc2)NC(=O)N(CC(=O)NC(=O)NC2CCCC2)C1=O (centres undefined) |  | inconclusive: 15.8 µM [falling, partial curve, poor fit]
Cc1ccc(-n2c(SCC(=O)Nc3ccc4c(c3)OCO4)nnc2-c2cccs2)cc1 | inconclusive: -1.18% | 
O=C1CN(C(=O)CSc2nnc(Nc3ccccc3)s2)c2ccccc2N1 | inconclusive: 0.991% | 
CCc1ccc(C(=O)COC(=O)CNC(=O)c2cccs2)cc1 | inconclusive: 18.9% | 

# Further results follow.

Compound,"activity change, negative = inhibition",Potency
CCOCCCNC(=O)C(NC(=O)CNC(=O)c1ccccc1)c1ccc(OC)cc1 (centres undefined),inconclusive: 5.4%,
NC(=NCCc1ccccc1)NS(=O)(=O)c1ccccc1F,inactive: -1.5%,
Nc1n[nH]c(N)c1N=Nc1ccccc1,inactive: -10.1%,
CC(=O)c1cccc(NC(=O)c2ccc(S(=O)(=O)N3CCCCC3)cc2)c1,inconclusive: -28.7%,
COCCNC(=O)CN1C(=O)/C(=C/c2ccccc2)Oc2ccc(C(C)(C)C)cc21,inactive: -0.97%,
COc1ccc(C(=O)NNC(=O)c2ccc3ccccc3c2O)cc1,inactive: -4.26%,
CONc1nc(NC(C)(C)C)nc(OCC#N)n1,inconclusive: 8.23%,
CCn1c(O)c(C=Nc2ccccc2)oc1=S,inconclusive: 1.6%,
O=C(Nc1ccccc1)Nc1ccccc1C(=O)NCc1ccccc1,,"inconclusive: 1.84 µM [falling, full curve]"
CCOc1ccc(NC(=O)COC(=O)c2cc([N+](=O)[O-])ccc2N2CCOCC2)cc1,inconclusive: 5.02%,
COc1ccccc1OCc1nc2ccccc2[nH]1,,"inconclusive: 20.6 µM [falling, single point]"
COc1cccc(OC)c1C(=O)NC(C)c1ccccc1 (centres undefined),inactive: -0.443%,
CCNc1nc2c(c(=O)n(C)c(=O)n2C)n1Cc1ccc(Cl)cc1,inconclusive: -0.714%,
CC(C)C(c1nnnn1Cc1ccco1)N1CCN(C2CCCC2)CC1 (centres undefined),inactive: 0.06%,
COc1ccc(NC(=S)N/N=C2\CC(C)(C)Oc3ccc(OC)cc32)cc1,inactive: -13.3%,
O=C(c1ccco1)N(Cc1ccc([N+](=O)[O-])cc1)c1ccc(Br)cc1,inconclusive: 0.589%,
O=C(CN1C(=O)c2ccccc2C1=O)Nc1cccc2cccnc12,inconclusive: 0.21%,
Clc1ccc(OCCOCCOc2cccc3cccnc23)c(Br)c1,inconclusive: 1.47%,
CCOC(=O)c1c(CCl)nc2ccccc2c1C,inconclusive: -1.14%,
CC(C)(Cc1ccc(O)cc1)NC(=O)c1ccccc1,inactive: -0.67%,
COc1cccc(C(=O)C2CCCN(Cc3c(C)n(C)n(-c4ccccc4)c3=O)C2)c1 (centres undefined),inconclusive: -0.515%,
CCOc1ccc(S(=O)(=O)NCC(c2ccco2)S(=O)(=O)c2ccc(C)cc2)cc1 (centres undefined),inactive: 13.2%,
Cc1ccc(-n2ncc(Br)c(Br)c2=O)cc1,inconclusive: 4.55%,
COc1ccc(Nc2cc(C(=O)NCCCN(C)Cc3ccccc3)c3ccccc3n2)c(OC)c1,inactive: 5.51%,
COc1cc2c(cc1OC)C(c1ccc(SC)cc1)CC(=O)N2 (centres undefined),,"inconclusive: 35.5 µM [falling, single point]"
CCn1cc(CCC(=O)NC(C)c2ccccc2)c2ccccc21 (centres undefined),inconclusive: 0.469%,
Cc1ccc(NC2c3ncccc3C(=O)N2C2CCCCC2)cc1C (centres undefined),,"inconclusive: 20.6 µM [falling, partial curve, poor fit]"
